The record followed here is PMC11148166.

These are yes or no findings as the source states them, for the method shown. In cells and extracts the contact can be indirect. A yes stands for co-enrichment or nearness to the bait. Other partners may have been found. Where a sequence is shown, tags or fusion partners need not be part of it.

In one test the target is T1, V5-TurboID-IRF1 (mouse) (UniProt P15314).
T1 sequence: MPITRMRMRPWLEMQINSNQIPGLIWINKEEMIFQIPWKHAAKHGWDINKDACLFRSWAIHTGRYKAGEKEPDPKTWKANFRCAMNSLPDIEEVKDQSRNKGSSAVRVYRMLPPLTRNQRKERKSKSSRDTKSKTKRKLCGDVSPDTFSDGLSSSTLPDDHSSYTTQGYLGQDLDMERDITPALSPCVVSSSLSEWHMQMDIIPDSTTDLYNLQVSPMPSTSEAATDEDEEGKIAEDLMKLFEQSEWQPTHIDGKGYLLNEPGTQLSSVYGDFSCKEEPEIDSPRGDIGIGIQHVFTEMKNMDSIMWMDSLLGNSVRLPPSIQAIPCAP
The test is described as follows: proximity labelling; TurboID; V5-TurboID-IRF1 (IRF1-BirA*) in Irf1-/- RAW 264.7 cells, Dox 4 h, untreated or IFNβ or IFNγ 3 h, 500 µM biotin 10 min; nuclear extracts, streptavidin beads, mass spectrometry; log2FC >= 0.5 above BirA*-NLS control, Padj <0.05.

For another test, the target named is T2, STAT1-TurboID-V5 (mouse) (UniProt P42225).
T2 sequence: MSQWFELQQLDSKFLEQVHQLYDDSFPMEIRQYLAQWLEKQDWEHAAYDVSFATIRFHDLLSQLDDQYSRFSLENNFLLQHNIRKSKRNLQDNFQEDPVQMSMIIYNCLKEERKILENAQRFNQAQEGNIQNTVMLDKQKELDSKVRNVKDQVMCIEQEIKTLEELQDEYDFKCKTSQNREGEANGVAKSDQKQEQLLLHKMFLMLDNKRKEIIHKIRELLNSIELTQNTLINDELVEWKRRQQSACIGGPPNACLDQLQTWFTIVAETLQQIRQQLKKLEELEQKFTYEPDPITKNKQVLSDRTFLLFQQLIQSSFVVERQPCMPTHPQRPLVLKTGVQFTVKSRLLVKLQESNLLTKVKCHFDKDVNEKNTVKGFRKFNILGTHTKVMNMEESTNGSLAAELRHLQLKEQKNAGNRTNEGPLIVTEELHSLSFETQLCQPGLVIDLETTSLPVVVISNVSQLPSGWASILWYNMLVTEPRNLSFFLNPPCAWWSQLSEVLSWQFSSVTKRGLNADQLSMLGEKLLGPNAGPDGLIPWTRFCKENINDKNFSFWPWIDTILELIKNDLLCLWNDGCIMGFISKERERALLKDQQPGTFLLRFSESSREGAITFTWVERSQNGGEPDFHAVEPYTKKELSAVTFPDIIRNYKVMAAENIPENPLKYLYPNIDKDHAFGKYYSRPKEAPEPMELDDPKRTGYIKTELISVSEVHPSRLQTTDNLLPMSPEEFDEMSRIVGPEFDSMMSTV
The test is described as follows: proximity labelling; TurboID; STAT1-TurboID-V5 (STAT1-BirA*) in Stat1-/- RAW 264.7 cells, Dox 24 h, untreated or IFNβ or IFNγ 3 h, 500 µM biotin 10 min; nuclear extracts, streptavidin beads, mass spectrometry; log2FC >= 1 above BirA*-NLS control, Padj <0.05.

B1: ATF3 (protein, UniProt Q60765 1-181)
chain: MMLQHPGQVSASEVSATAIVPCLSPPGSLVFEDFANLTPFVKEELRFAIQNKHLCHRMSSALESVTVNNRPLEMSVTKSEAAPEEDERKRRRRERNKIAAAKCRNKKKEKTECLQKESEKLESVNAELKAQIEELKNEKQHLIYMLNLHRPTCIVRAQNGRTPEDERNLFIQQIKEGTLQS
Turning to B1, the binding entry with V5-TurboID-IRF1 (mouse) and in the test with STAT1-TurboID-V5 (mouse) was “binds” each time.
